# PubChem BioAssay AID652272, Drosophila RNAi Screening Center | 2013
# Assay: 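Genes whose knock-down decreases or increases Hedgehog reporter output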 (primary screen)
# Cells: Drosophila clone 8 (Cl8) cells
# Knock-down reagent: long dsRNA against Drosophila genes
# Read-out: 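Firefly light from a Hedgehog-responsive ptc promoter reporter and Renilla reference light, both read on a plate reader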
# Scale: firefly Hh reporter signal: higher = more ptc reporter light; Renilla reference signal: higher = more Renilla control light
# Hit rule: 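Called a hit if the two-replicate mean z-score lies below -2 or above +3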
# Calls: active = hit: reporter lowered or raised; inactive = not a hit
# The deposit covers about 21,000 reagents; shown is a random part of those with a known target gene and a result. Of all reagents, 503 (2.4%) were called active. 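Raw plate light values, not normalised; calls rest on replicate z-scores that were not deposited; hits include reporter decreases as well as increases.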 Not given: the amount of reagent, the time to read-out.
The first 4 records, to show the layout:
target gene,amplicon,"firefly Hh reporter signal, replicate 1","firefly Hh reporter signal, replicate 2","firefly Hh reporter signal, replicate 3","Renilla reference signal, replicate 1","Renilla reference signal, replicate 2",outcome
CG34331,DRSC20679,79139,2.33e5,,2817,8420,inactive
CARPA (Carbonic anhydrase-related protein A),DRSC17905,1.20e5,3.12e5,,3635,13274,inactive
CG4681,DRSC04481,65573,66788,,1285,4977,inactive
CG10185,DRSC14205,96945,95509,,2448,7209,inactive

The listing, from the first entry:
target gene,amplicon,"firefly Hh reporter signal, replicate 1","firefly Hh reporter signal, replicate 2","firefly Hh reporter signal, replicate 3","Renilla reference signal, replicate 1","Renilla reference signal, replicate 2",outcome
CG34331,DRSC20679,79139,2.33e5,,2817,8420,inactive
CARPA (Carbonic anhydrase-related protein A),DRSC17905,1.20e5,3.12e5,,3635,13274,inactive
CG4681,DRSC04481,65573,66788,,1285,4977,inactive
CG10185,DRSC14205,96945,95509,,2448,7209,inactive
Reg-2 (Rhythmically expressed gene 2),DRSC08690,1.30e5,69238,,5257,3136,inactive
sug (sugarbabe),DRSC06855,65827,41537,,2741,1717,inactive
"ATPsynD (ATP synthase, subunit D)",DRSC14093,5.31e5,69553,,25693,1639,inactive
rdgBbeta,DRSC07672,1.37e5,73965,,3876,5296,inactive
RnrS (Ribonucleoside diphosphate reductase small subunit),DRSC07533,57592,77072,,3030,3220,inactive
CG14024,DRSC00868,7.39e5,1.48e5,,36712,7315,inactive
CG14024,DRSC02354,61436,47700,,2769,2200,inactive
fit (female-specific independent of transformer),DRSC15280,9.42e5,2.29e5,,37108,4898,inactive
CG15127,DRSC05802,1.28e5,3.06e5,,3607,11021,inactive
CG15127,DRSC06549,1.20e5,80073,,3264,5060,inactive
CG4511,DRSC15589,65287,1.26e5,,2119,3984,inactive
mthl12 (methuselah-like 12),DRSC12964,37460,1.60e5,,7107,3640,inactive
CG43307,DRSC00893,7.95e5,2.63e5,,42198,11947,inactive
CG4313,DRSC18514,90682,67132,,2323,2358,inactive
CG9926,DRSC16582,1.44e5,1.04e5,,6288,4073,inactive
CG32772,DRSC18052,2.72e5,1.18e5,3.53e5,1813,3361,inactive
CG32772,DRSC18406,1.31e5,1.19e5,,2763,2390,inactive
CG13247,DRSC11695,1.37e5,1.16e5,,4469,3184,inactive
p38b (p38b MAP kinase),DRSC03586,1.19e5,60160,,2945,5971,inactive
Mgat2,DRSC16347,86587,77722,,2438,2225,inactive
mamo (maternal gene required for meiosis),DRSC19001,2.13e5,38648,,15972,1392,active
mamo (maternal gene required for meiosis),DRSC19370,87931,2.35e5,,1488,8453,inactive
mamo (maternal gene required for meiosis),DRSC19371,98864,3.08e5,,2246,10546,inactive
mamo (maternal gene required for meiosis),DRSC19372,1.20e5,4.57e5,3.58e5,3460,2802,inactive
mamo (maternal gene required for meiosis),DRSC19373,1.39e5,6.95e5,4.36e5,3856,3360,inactive
CG6912,DRSC16132,82080,1.41e5,,3409,4444,inactive
SiaT (Sialyltransferase),DRSC04494,72503,46528,,1789,4304,inactive
CG4301,DRSC19886,45293,2.47e5,,1194,9030,inactive
Ets21C (Ets at 21C),DRSC00751,1.21e5,1.33e5,,2346,2934,inactive
CG2070,DRSC06814,63847,24432,,1794,2360,inactive
Strump (Strumpellin),DRSC09872,1.28e5,,,6515,3686,inactive
Sas-4 (Spindle assembly abnormal 4),DRSC12505,85160,1.01e5,,3458,2689,inactive
CG16743,DRSC02514,1.19e5,36678,,3483,3744,inactive
CG31787,DRSC01632,75416,1.48e5,,1072,6755,inactive
CG5157,DRSC10488,1.30e5,,,2067,3560,inactive
